Measurements reported in PubChem BioAssay AID720505 (Drosophila RNAi Screening Center, 2013)
Screen: 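Fly regulators or components of the CRAC channel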 (primary screen). Cell system: Drosophila S2R+ cells. Reagents: long dsRNA against Drosophila genes. Treatment: thapsigargin (2 µM) in calcium-free buffer to empty internal stores, then 2 mM calcium added back. Measured: 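Stores emptied by 2 µM thapsigargin without calcium, then 2 mM calcium re-added; fluo-4 fluorescence followed by FLIPR in 384-well plates, per-well averaged endpoint, raw; two screen passes, some wells retested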. Scale: calcium signal: higher = more calcium entry after store depletion. Rule for the call: 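Knock-downs counted as hits when calcium entry dropped relative to STIM1 positive and Rho1 negative controls present on each plate; roughly 1500 genes called, with reductions of differing size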. Calls: active = called as lowering calcium entry; inactive = not called.
In all, the deposit lists about 20,000 reagents; this is a random part of those with a known target gene and a result. In the full data, about 2,100 (10%) got an active call. 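Raw plate signals without normalisation; calls rest on control-based scores that were not deposited; replicate 2 separates called from uncalled poorly.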 The numbers tell different reagents against one gene apart. A plus sign joins genes that one reagent is predicted to hit. The record does not give: the amount of reagent, the time to read-out.

What is on record for CG7556?
calcium signal, replicate 1: 152; calcium signal, replicate 2: 133; outcome: inactive

What is on record for CG31326?
calcium signal, replicate 1: 89.2; calcium signal, replicate 2: 104; outcome: inactive

With sloth2 + sloth1 #1, how do the results read?
calcium signal, replicate 1: 245; calcium signal, replicate 2: 123; outcome: inactive

How did the screen score sloth2 + sloth1 #2?
calcium signal, replicate 1: 233; calcium signal, replicate 2: 178; outcome: inactive

With Exn #1, how do the results read?
calcium signal, replicate 1: 92.5; calcium signal, replicate 2: 85.7; outcome: inactive

How did the screen score Exn #2?
calcium signal, replicate 1: 84.8; calcium signal, replicate 2: 150; outcome: inactive

What did the screen give for CG34133 #1?
calcium signal, replicate 1: 108; calcium signal, replicate 2: 83.5; outcome: inactive

Which result is listed for CG34133 #2?
calcium signal, replicate 1: 76.2; calcium signal, replicate 2: 249; outcome: inactive

For zld #1, how do the results read?
calcium signal, replicate 1: 96.9; calcium signal, replicate 2: 96.2; outcome: inactive

What did the screen give for zld #2?
calcium signal, replicate 1: 121; calcium signal, replicate 2: 91.6; outcome: inactive

How did the screen score zld #3?
calcium signal, replicate 1: 124; calcium signal, replicate 2: 130; outcome: inactive

With IntS2, how do the results read?
calcium signal, replicate 1: 153; calcium signal, replicate 2: 108; outcome: inactive

With CG32379, how do the results read?
calcium signal, replicate 1: 97.9; calcium signal, replicate 2: 66.9; outcome: inactive

With PPO3, how do the results read?
calcium signal, replicate 1: 148; calcium signal, replicate 2: 103; outcome: inactive

Which result is listed for CG31974?
calcium signal, replicate 1: 147; calcium signal, replicate 2: 139; outcome: inactive

How did the screen score CG13284?
calcium signal, replicate 1: 93.9; calcium signal, replicate 2: 126; outcome: inactive

What did the screen give for yip3?
calcium signal, replicate 1: 105; calcium signal, replicate 2: 152; outcome: inactive

For CG43163, how do the results read?
calcium signal, replicate 1: 61.3; calcium signal, replicate 2: 62.6; outcome: active

Reagents listed above called active:
CG43163 → calcium signal, replicate 1: 61.3; calcium signal, replicate 2: 62.6; outcome: active

Additional entries follow.
Which result is listed for f #1?
calcium signal, replicate 1: 79.4; calcium signal, replicate 2: 174; outcome: inactive

What did the screen give for f #2?
calcium signal, replicate 1: 86.8; calcium signal, replicate 2: 112; outcome: inactive

With f #3, what was measured?
calcium signal, replicate 1: 83.8; calcium signal, replicate 2: 128; outcome: inactive

How did the screen score akirin?
calcium signal, replicate 1: 103; calcium signal, replicate 2: 146; outcome: inactive

For mms4, what was measured?
calcium signal, replicate 1: 98.4; calcium signal, replicate 2: 112; outcome: inactive

For CG8611, what does the deposit list?
calcium signal, replicate 1: 94.8; calcium signal, replicate 2: 136; outcome: inactive

With CG1090 #1, what was measured?
calcium signal, replicate 1: 97.6; calcium signal, replicate 2: 81.5; outcome: inactive

With CG1090 #2, what was measured?
calcium signal, replicate 1: 164; calcium signal, replicate 2: 86.5; outcome: inactive

What did the screen give for CG31391?
calcium signal, replicate 1: 117; calcium signal, replicate 2: 119; outcome: inactive

With CG14854, how do the results read?
calcium signal, replicate 1: 107; calcium signal, replicate 2: 153; outcome: inactive
